This is a selection; strong and weak results do not stand in their true shares. At the low end of the ranking, values are background and their order means little.

By UniProt entry, the sequences of proteins in these tests, tags left out. Where a name states a change or a piece, a line headed by the entry shows the natural chain unless it says otherwise.
UniProt O43186: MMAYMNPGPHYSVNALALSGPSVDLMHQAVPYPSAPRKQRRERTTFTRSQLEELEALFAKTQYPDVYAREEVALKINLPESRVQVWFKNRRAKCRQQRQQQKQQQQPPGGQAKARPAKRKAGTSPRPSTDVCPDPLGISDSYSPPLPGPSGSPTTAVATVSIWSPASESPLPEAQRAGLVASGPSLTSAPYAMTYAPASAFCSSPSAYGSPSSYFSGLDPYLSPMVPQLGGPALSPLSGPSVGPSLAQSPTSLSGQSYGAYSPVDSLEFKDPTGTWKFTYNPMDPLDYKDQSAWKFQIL

Here are results for 30 sequences from paper PMC7862700.

Assay in all cases: DAPPL (digital affinity profiling via proximity ligation, sequencing)
Holding throughout (conditions): 10 mM Tris-HCl pH 7.5, 50 mM NaCl, 1 mM DTT, 4% glycerol, room temperature, 30 min; GST-TFs on glutathione beads, 16-mer random dsDNA library, 0.1% …; high values mean tight binding; double strand, one strand shown; scale: fold enrichment (6-mer frequency, TF over GST control)

Assay [1] concerns the target T1, FEV (UniProt Q99581).
T1 sequence: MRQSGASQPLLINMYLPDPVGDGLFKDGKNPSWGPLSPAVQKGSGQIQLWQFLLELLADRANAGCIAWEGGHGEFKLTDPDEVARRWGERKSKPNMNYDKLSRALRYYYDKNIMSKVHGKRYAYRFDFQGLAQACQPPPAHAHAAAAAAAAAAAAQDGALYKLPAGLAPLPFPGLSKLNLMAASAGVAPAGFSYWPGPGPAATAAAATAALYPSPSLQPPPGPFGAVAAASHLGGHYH

The target in assay [2] is CRX (UniProt O43186).
Assay [3] concerns the target T2, ELF5 (UniProt Q9UKW6-2).
T2 sequence: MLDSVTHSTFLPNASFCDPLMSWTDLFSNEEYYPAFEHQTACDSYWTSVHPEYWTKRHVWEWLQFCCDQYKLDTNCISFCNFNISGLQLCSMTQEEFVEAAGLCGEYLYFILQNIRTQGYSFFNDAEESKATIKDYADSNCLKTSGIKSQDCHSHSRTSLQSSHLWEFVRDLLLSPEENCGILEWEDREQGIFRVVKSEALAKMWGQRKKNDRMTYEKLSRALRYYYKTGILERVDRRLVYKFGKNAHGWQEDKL

On to AAGAGC, for which the binding signal in assay [1] came to 0.844; in assay [2], 0.904; in assay [3], 0.874.
For the sequence TAGGAG, the binding signal in assay [1] was 0.374; in assay [2], 0.453; in assay [3], 0.382.
Turning to GCATCA, the binding signal in assay [1] stood at 0.723; in assay [2], 0.644; in assay [3] it was 0.708.
For GATCGC the same measures were 0.828, 0.84 and 0.762.
On the same counts, the results for AGTTGA are 0.776, 0.678 and 0.772.
On the same counts, the results for GCATAT are 0.942, 0.768 and 0.905.
Turning to GCGGAG, the binding signal stood at 0.243 in assay [1], 0.216 in assay [2] and 0.235 in assay [3].
For GGCGCT the same measures were 0.703, 0.676 and 0.714.
For GTTAGA the same measures were 0.768, 0.737 and 0.721.
For CGCGGA the same measures were 0.865, 0.753 and 1.03.
Turning to TCGTGG, the binding signal in assay [1] came to 0.717; in assay [2], 0.691; in assay [3], 0.733.
For GGAGGC the same measures were 0.263, 0.199 and 0.219.
On the same counts, the results for GAGCAG are 0.587, 0.492 and 0.601.
With GCAAGA, the binding signal in assay [1] was 0.768; in assay [2], 0.727; in assay [3], 0.774.
Consider TAGGGG, for which the binding signal in assay [1] is 0.835; in assay [2] it was 0.976; in assay [3], 0.726.
Consider GGCCGT, for which the binding signal in assay [1] is 0.39; in assay [2], 0.313; in assay [3] it was 0.356.
Take GAGACC: the figures for the binding signal in assay [1], in assay [2] and in assay [3] were 0.267, 0.129 and 0.18, respectively.
GGTCGC: the values for the binding signal in assay [1], in assay [2] and in assay [3] were 0.785, 0.467 and 0.763, respectively.
On the same counts, the results for TCGGCC are 0.751, 0.63 and 0.668.
CAGGAG: the binding signal in assay [1] was 0.269; in assay [2], 0.218; in assay [3] it was 0.254.
Regarding AAGCCA, the binding signal in assay [1] was found to be 0.894; in assay [2], 1.12; in assay [3], 0.789.
For AGACCA the same measures were 0.66, 0.59 and 0.63.
In the case of GGACAG, the binding signal in assay [1] was 0.573; in assay [2], 0.44; in assay [3], 0.572.
GGTTCG: the binding signal in assay [1] stood at 0.8; in assay [2], 0.649; in assay [3], 0.801.
For AGTCGA the same measures were 0.403, 0.373 and 0.396.
On the same counts, the results for GTAGAG are 0.536, 0.492 and 0.557.
For GGGCCA the same measures were 0.739, 0.525 and 0.625.
Take CGTAGA: the binding signal came out at 0.698 in assay [1], 0.674 in assay [2] and 0.69 in assay [3].
For the sequence TGAGGT, the binding signal was found to be 0.564 in assay [1], 0.543 in assay [2] and 0.63 in assay [3].
For CGTGAA the same measures were 0.435, 0.381 and 0.459.
